Data on 1 molecule can be found in patent publication US8685695B2, “Method for producing a mixture of bacteriophages and the use thereof in the therapy of antibiotic-resistant staphylococci” (priority 2008, dated 2014).

What all share (assay type): cell-based, Staphylococcus aureus
One test concerns S. aureus DSM 18421. In words: Nanocalorimetric measurement of metabolism. The settings on record: antibiotics 10 μg/ml; bacteriophages 4×10^9 PFU/ml. As to the method:
(§1) Another sensitive method of examining the activity of micro-organisms is available in the form of nanocalorimetry. In this technique, metabolic action is measured by way of the heat it produces. The production of heat is measured from the voltage (in [p\/]) generated at thermocouples.
(§2) A detailed description of the measuring system used and the procedure can be found in: J. Lerchner et al., Thermochimica Acta 477, 2008, 48-53.
(§3) The concentration of the bacteriophages was 4×10^9 PFU/ml.

The subject of another test is S. aureus M.06.02.0071. In words: Nanocalorimetric measurement of metabolism. The settings on record: antibiotics 10 μg/ml; bacteriophages 4×10^9 PFU/ml. On the procedure:
as §1, §2, §3

Test [1] concerns S. aureus from tissue (M.06.02.0071, mouse pneumonia model). Nature of the test: Nanocalorimetric measurement of metabolism, bacteria isolated from lung tissue. The settings on record: antibiotics 10 μg/ml, bacteriophages 4×10^9 PFU/ml. On the procedure: as §1, §2, §3

As to `CCC[C@@H]1C[C@@H](C(=O)N[C@@H]([C@H]2O[C@H](SC)[C@H](O)[C@@H](O)[C@H]2O)[C@H](C)Cl)N(C)C1` [Clindamycin, clindamycin], the “% relative to control” value worked out at 37% in the test on S. aureus DSM 18421, 34% with S. aureus M.06.02.0071 and 81% in test [1]. The Difference voltage is −3.808 μV in the test with S. aureus DSM 18421, −3.499 μV in the test on S. aureus M.06.02.0071 and −0.706 μV in test [1].
